According to doi:10.1101/632331:
These are yes or no findings as the source states them, for the method shown. Binding seen in cells or lysates may run through a third protein. Some entries that bind do so weakly or less than the wild type. Where a sequence is shown, tags or fusion partners need not be part of it.

By UniProt entry, the sequences of proteins in these tests, tags left out.
UniProt Q99814: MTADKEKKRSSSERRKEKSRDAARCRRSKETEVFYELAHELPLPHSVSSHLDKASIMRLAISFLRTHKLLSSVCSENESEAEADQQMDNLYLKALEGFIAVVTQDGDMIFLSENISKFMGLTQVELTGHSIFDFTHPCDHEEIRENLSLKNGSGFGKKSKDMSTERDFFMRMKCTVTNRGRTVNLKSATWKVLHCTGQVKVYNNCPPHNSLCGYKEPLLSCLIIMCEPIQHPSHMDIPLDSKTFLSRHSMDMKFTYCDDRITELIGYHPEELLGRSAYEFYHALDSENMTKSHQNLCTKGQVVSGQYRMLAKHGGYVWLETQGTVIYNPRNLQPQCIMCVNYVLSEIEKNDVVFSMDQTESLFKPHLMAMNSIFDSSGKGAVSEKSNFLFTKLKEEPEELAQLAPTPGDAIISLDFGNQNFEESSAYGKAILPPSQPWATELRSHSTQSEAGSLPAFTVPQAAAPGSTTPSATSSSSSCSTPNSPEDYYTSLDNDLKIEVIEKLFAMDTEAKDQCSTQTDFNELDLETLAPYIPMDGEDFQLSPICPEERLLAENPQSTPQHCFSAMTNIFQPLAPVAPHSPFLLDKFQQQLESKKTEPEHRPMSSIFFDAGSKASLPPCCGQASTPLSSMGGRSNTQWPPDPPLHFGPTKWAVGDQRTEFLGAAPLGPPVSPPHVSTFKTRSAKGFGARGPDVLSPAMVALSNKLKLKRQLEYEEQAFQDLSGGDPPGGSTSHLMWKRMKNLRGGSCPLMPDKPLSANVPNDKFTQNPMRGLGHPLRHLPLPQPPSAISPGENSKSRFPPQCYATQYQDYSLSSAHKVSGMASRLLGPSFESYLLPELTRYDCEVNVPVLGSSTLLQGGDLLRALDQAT
UniProt O60573: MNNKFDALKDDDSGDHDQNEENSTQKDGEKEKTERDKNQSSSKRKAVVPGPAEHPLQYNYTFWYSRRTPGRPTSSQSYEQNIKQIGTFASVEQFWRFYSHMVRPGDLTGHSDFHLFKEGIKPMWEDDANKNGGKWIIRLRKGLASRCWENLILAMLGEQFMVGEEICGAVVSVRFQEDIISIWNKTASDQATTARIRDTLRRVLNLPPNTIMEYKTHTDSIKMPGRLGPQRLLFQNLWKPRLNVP

B1: FLAG-DDX28 (DEAD box protein 28, C-terminal 3x FLAG) (protein, UniProt Q9NUL7 1-540)
chain: MALTRPVRLFSLVTRLLLAPRRGLTVRSPDEPLPVVRIPVALQRQLEQRQSRRRNLPRPVLVRPGPLLVSARRPELNQPARLTLGRWERAPLASQGWKSRRARRDHFSIERAQQEAPAVRKLSSKGSFADLGLEPRVLHALQEAAPEVVQPTTVQSSTIPSLLRGRHVVCAAETGSGKTLSYLLPLLQRLLGQPSLDSLPIPAPRGLVLVPSRELAQQVRAVAQPLGRSLGLLVRDLEGGHGMRRIRLQLSRQPSADVLVATPGALWKALKSRLISLEQLSFLVLDEADTLLDESFLELVDYILEKSHIAEGPADLEDPFNPKAQLVLVGATFPEGVGQLLNKVASPDAVTTITSSKLHCIMPHVKQTFLRLKGADKVAELVHILKHRDRAERTGPSGTVLVFCNSSSTVNWLGYILDDHKIQHLRLQGQMPALMRVGIFQSFQKSSRDILLCTDIASRGLDSTGVELVVNYDFPPTLQDYIHRAGRVGRVGSEVPGTVISFVTHPWDVSLVQKIELAARRRRSLPGLASSVKEPLPQAT
B2: DDX28 (as probed in the FLAG-eIF4E2 co-immunoprecipitation, Fig. 1D) (protein, UniProt Q9NUL7 1-540)
chain: B1 chain

How the values were obtained:
[1] = biological target: FLAG-GFP-HIF-2α (UniProt Q99814); test: co-IP
[2] = biological target: FLAG-eIF4E2 (UniProt O60573); test: co-IP

Binder | binding [1] | binding [2]
B1 | binds | –
B2 | – | no binding
